Assay results as given in PubChem BioAssay AID1347076 (National Center for Advancing Translational Sciences (NCATS), 2019).
Out of some 400,000 compounds screened, about 13,000 (3.2%) were called active. This list was built around the results that the source calls inconclusive (neither active nor inactive); the mix of calls is not that of the screen. Calls follow the shape of the dose curve; as a rule, active = well fitted cell-killing curve with a large enough effect; inconclusive = small, poorly fitted or top-dose-only effect, or effect the other way; inactive = flat fitted curve, though single readings scatter. Where the call is inconclusive, the potency comes from a doubtful curve fit.

test: qHTS assay for MDR1-selective chemotherapeutics: Primary screen using the drug-selected MDR subline cells KB-V1; details: KB-V1 MDR cells viability, CellTiter-Glo, 72 h; activity change, negative = cytotoxicity: at 46.1 µM (top of the series); also: nearly all actives have a fitted effect of over 60% in size
Summary of the method: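 Cytotoxicity toward P-gp-expressing KB-V1 cells was determined as loss of CellTiter-Glo luminescence after 72 h at 37 degrees C. Compounds were tested in quantitative HTS format across a concentration range, with curves fitted to normalized data.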
% is scaled to controls: 0 for no effect and ±100 for the full control effect; potency is read from the fitted curve at half-maximal effect.

Structure (SMILES)	Potency	activity change, negative = cytotoxicity
CCC(=O)OCC(=O)c1cc(C)n(-c2ccc(Br)cc2)c1C	active: 14.6 µM	–
N=c1c2c(-c3ccccc3)c(-c3ccccc3)oc2ncn1CCCN1CCOCC1	active: 23.1 µM	–
CCOC(=O)COc1ccc(F)cc1C(=O)c1ccn2nc(-c3ccc(C)cc3)cc2n1	inconclusive: 23.1 µM [rising, single point]	–
O=C(NN=Cc1ccccc1C(=O)O)C(=O)NN=Cc1ccccc1C(=O)O	inconclusive: 3.26 µM [cytotoxic, full curve, poor fit]	–
COC(=O)CCCC1=CC2=CC(=O)C(C)(OC(=O)c3cccs3)C(=O)C2=CN1CCc1ccccn1 (centres undefined)	inconclusive: 29.1 µM [rising, single point]	–
Cc1cccc(NC(=O)CN(C)CC(=O)NC(c2ccccc2)c2ccccc2)c1C	active: 3.26 µM	–
O=C(Cn1c(SCC(=O)Nc2ccc(F)cc2)nc2ccccc21)NCc1ccccc1Cl	inconclusive: 4.61 µM [cytotoxic, full curve]	–
COc1ccc(-c2csc(NC(=O)Cc3ccccc3F)n2)cc1OC	inconclusive: 7.31 µM [cytotoxic, partial curve]	–
NCCCC[C@H]1CN=C(N)N1CCCCC1CCCCC1	–	inactive: -8.73%
O=C(Nc1ccc(C(=O)N2CCCC2)cc1)c1ccc2c(c1)OCO2	inconclusive: 20.6 µM [cytotoxic, single point]	–
O=C(O)C1=CC[C@@H](c2ccc(Cl)cc2)N(S(=O)(=O)c2ccc(Cl)cc2)[C@H]1c1cccc(Cl)c1	–	inactive: -8.71%
COC(=O)c1ccc(Cl)cc1NC(=O)N(Cc1ccc(OC)cc1)C1CCN(C(C)=O)CC1	–	inactive: -51.9%
COc1ccc(-c2cc3nc(C)c(CCC(=O)N4CCN(c5ccccn5)CC4)c(C)n3n2)c(OC)c1	inconclusive: 32.6 µM [cytotoxic, single point]	–
COc1cc2c(cc1NC(=O)C(C)N1CCN(S(=O)(=O)c3ccc(C)c(C)c3)CC1)oc1ccccc12 (centres undefined)	–	inactive: -18.6%
CCc1nnc(NS(=O)(=O)c2ccc(NC(=O)c3ccccc3O)cc2)s1	–	inactive: 23.1%
Cc1ccc2c(c1)NCC(C(=O)NC1CCC(C)CC1)O2 (centres undefined)	inconclusive: 16.4 µM [rising, partial curve, poor fit]	–
Nc1ccn(CC(=O)NCc2ccc3[nH]ccc3c2)c(=O)n1	–	inactive: -9.67%
COc1ccc2c(c1)c(CC(=O)OC(C)C(=O)N(C)C)c(C)n2C(=O)c1ccc(Cl)cc1 (centres undefined)	inconclusive: 8.2 µM [cytotoxic, partial curve]	–
O=C(/C=C\c1ccco1)Nc1cc([N+](=O)[O-])ccc1F	active: 1.16 µM	–
COc1ccc(-c2cnc3c(c2)C(=O)N([C@H](C)CO)C[C@@H](C)[C@H](CN(C)Cc2ccccc2)O3)cc1	–	inactive: 20.4%
COc1ccc(-n2cc(C(=O)OCc3ccc(Cl)cc3)c3ccccc3c2=O)cc1	–	inactive: 0.608%
Cc1cc(CCNC=O)c(C)c2c1oc1ccccc12	inconclusive: 29.1 µM [cytotoxic, single point]	–
Cc1cccc(N(C(=O)CCC(=O)Nc2ccccn2)C(C(=O)NC(C)C)c2ccc(F)cc2)c1 (centres undefined)	inconclusive: 11.6 µM [cytotoxic, partial curve, poor fit]	–
CCOc1ccc2nc(N3CCCC(C(=O)NCCCN4CC(C)CC(C)C4)C3)sc2c1 (centres undefined)	–	inactive: 1.41%
CCOC(=O)C(=O)Nc1ccc(F)cc1	inconclusive: 16.4 µM [rising, single point]	–

Structure (SMILES)	Potency	activity change, negative = cytotoxicity
CCOc1ccc(Nc2sc(C(=O)c3cccc(OC)c3)c(N)c2S(=O)(=O)c2ccccc2)cc1	inconclusive: 2.59 µM [cytotoxic, full curve]	–
CCCCCCc1cc2cc(-c3nnc(-c4ccccc4O)o3)c(=O)oc2cc1O	active: 13 µM	–
CC(C)(O)C#Cc1ccc(CN2CCN(C3CCCC3)C(CCO)C2)cc1 (centres undefined)	–	inactive: -5.04%
CC(C)C(=O)NC(=S)Nc1ccccc1C(=O)NC1CCCCC1	inconclusive: 20.6 µM [cytotoxic, partial curve, poor fit]	–
CS(=O)(=O)N1CCCCC1c1cc(C(=O)NCc2ccc(F)cc2)no1 (centres undefined)	–	inactive: -12.6%
Cc1cc[n+](CC(=O)c2ccc3c(c2)OCCO3)cc1	–	inactive: 3.15%
O=C(NNC1CCN(Cc2ccccc2)CC1)c1ccccc1	–	inactive: 2.48%
O=C(CCCOc1ccccc1)NC1CCCc2ccccc21 (centres undefined)	active: 18.4 µM	–
O=C(NCCCN1CCCC1=O)c1cccc(S(=O)(=O)N2CCN(c3ccc(F)cc3)CC2)c1	inconclusive: 18.4 µM [cytotoxic, single point]	–
CN(C)C(CNC(=O)CNC(=O)c1ccc(Br)cc1)c1ccccc1 (centres undefined)	–	inactive: -24.9%
Oc1cc(-c2cccnc2)cc2cccnc12	inconclusive: 23.1 µM [cytotoxic, single point]	–
CC(C)CCNC(=O)Cc1csc(-c2ccccc2)n1	inconclusive: 18.4 µM [cytotoxic, single point]	–
Cc1ccc(NCc2ccccc2)cc1	–	inactive: -1.48%
Cc1nn(C)c(=O)c(N)c1-c1cc(-c2ccc(Cl)c(Cl)c2)n[nH]1	inconclusive: 29.1 µM [rising, single point]	–
COc1ccccc1CNc1nc2cc(-c3ccc(OC)c(OC)c3)sc2c(=O)n1C	active: 9.2 µM	–
COc1ccc2nc(NC(=O)c3cccs3)sc2c1	inconclusive: 16.4 µM [cytotoxic, partial curve, poor fit]	–
O=C(c1cnn2ccccc12)N(Cc1ccco1)C1CCCC1	inconclusive: 14.6 µM [cytotoxic, partial curve]	–
COc1ccc(S(=O)(=O)N2CCC(C(=O)NCCc3ccccc3)CC2)cc1	inconclusive: 29.1 µM [rising, partial curve, poor fit]	–
Cc1ccccc1-c1noc(-c2ccc(N3CCN(C)CC3)c([N+](=O)[O-])c2)n1	–	inactive: 17.4%
Cc1cc(C)c(NC(=O)C(=O)NCC(c2cccnc2)N2CCN(Cc3ccccc3)CC2)c(C)c1 (centres undefined)	–	inactive: 13.1%
COc1ccc(S(=O)(=O)Nc2ccc(O)c3ccccc23)cc1	inconclusive: 23.1 µM [cytotoxic, single point]	–
O=C(Nc1ccc2nc3n(c(=O)c2c1)CCCCC3)c1c(F)ccc([N+](=O)[O-])c1F	active: 16.4 µM	–
CCOc1ccc2nc(C)cc(Nc3cccc([N+](=O)[O-])c3)c2c1	active: 14.6 µM	–
Cn1cccc1/C=N/n1c(-c2ccco2)n[nH]c1=S	–	inactive: 0%
CCCC(=O)Nc1cc(C)c2c(=O)oc3ccccc3c2n1	active: 18.4 µM	–

Structure (SMILES)	Potency	activity change, negative = cytotoxicity
c1ccc(-n2nnnc2NC2CCCCCC2)cc1	inconclusive: 14.6 µM [cytotoxic, single point]	–
CSc1nn(Cc2cccc(Cl)c2)c(N(C(C)=O)C(C)=O)c1S(=O)(=O)c1ccccc1	–	inactive: 2.23%
COc1ccc(C2c3c(ncn(CCCN4CCOCC4)c3=N)Oc3ccc4ccccc4c32)cc1OC (centres undefined)	–	inactive: -5.18%
CCc1nc(NCc2cccnc2)c2oc3ccccc3c2n1	inconclusive: 16.4 µM [cytotoxic, partial curve, poor fit]	–
O=C(NC(Cc1ccc(O)cc1)C(=O)N=Nc1c(O)[nH]c2ccccc12)c1ccccc1 (centres undefined)	–	inactive: 1.45%
COc1ccc(-c2nc(CN3CCC(C(=O)NC4CCCC4)CC3)c(C)o2)cc1OC	–	inactive: 1.87%
O=C(Cc1cccc(NC(=O)C2CCN(C(=O)C3CCC3)CC2)c1)Nc1cccc(C(=O)N2CCCCC2)c1	inconclusive: 6.51 µM [rising, full curve, poor fit]	–
CN(Cc1ccnc2ccccc12)C(=O)C1CCC(=O)N(Cc2ccccc2F)C1 (centres undefined)	inconclusive: 29.1 µM [cytotoxic, single point]	–
CC(C)(C)C(=O)Nc1nc2c(s1)CN(Cc1ccccc1)CC2	inconclusive: 20.6 µM [cytotoxic, single point]	–
Cc1cc(Nc2ccc(C)c(F)c2)n2ncnc2n1	inconclusive: 16.4 µM [cytotoxic, single point]	–
O=C(CSc1nc(C2CCCCC2)n(-c2ccccc2)n1)NCC(F)(F)F	active: 8.2 µM	–
CCOC(=O)c1c(NC(=O)CCN2CCOCC2)sc2c1CC(C)(C)OC2	active: 16.4 µM	–
N#CCC(=O)N/N=C\c1ccccc1OC/C=C/c1ccccc1	–	inactive: 16.7%
CCOC(=O)c1cnc2oc3ccccc3n2c1=O	inconclusive: 14.6 µM [rising, partial curve, poor fit]	–
Fc1ccc(-c2nc(-c3c[nH]c4ccccc34)cs2)cc1	–	inactive: 10.5%
COc1ccc(/C=C/C(=O)Nc2ccc(-c3nnc4n3CCCCC4)cc2)c(OC)c1	–	inactive: -2.66%
COCCCN1C(=O)C(CC(=O)NCc2cccc3ccccc23)CC(C(=O)N2CCCCCC2)=C1C (centres undefined)	active: 10.5 µM	–
COc1ccc(Cc2nnc(NN)[nH]c2=O)cc1OC	inconclusive: 18.4 µM [rising, partial curve, poor fit]	–
CC(OC(=O)CCc1nc2ccccc2[nH]c1=O)c1ccccc1 (centres undefined)	–	inactive: 0.461%
CCC(C(=O)N1CCOCC1)n1c2ccccc2c2nc(=O)cc(C)n21 (centres undefined)	–	inactive: 0.0524%
Cc1ccccc1-c1cc(C(=O)NCc2cccc(Br)c2)n(CC2CC(c3cccnc3)=NO2)n1 (centres undefined)	inconclusive: 14.6 µM [cytotoxic, partial curve]	–
O=C(NCC(c1cccnc1)N1CCc2ccccc21)c1ccc(F)cc1 (centres undefined)	inconclusive: 16.4 µM [cytotoxic, single point]	–
COC(=O)Nc1ccc(S(=O)(=O)N2CCC(C(=O)N3CCCC(C)C3)CC2)cc1 (centres undefined)	inconclusive: 29.1 µM [cytotoxic, single point]	–
COC(=O)c1ccc(CNC(=O)COC(=O)C23CC4CC(CC(C4)C2)C3)cc1	inconclusive: 0.731 µM [rising, full curve]	–

Single records, as listed above. Values in the order: Potency | activity change, negative = cytotoxicity
O=C(NC(Cc1ccc(O)cc1)C(=O)N=Nc1c(O)[nH]c2ccccc12)c1ccccc1 (centres undefined) is listed as – | inactive: 1.45%
COC(=O)c1ccc(CNC(=O)COC(=O)C23CC4CC(CC(C4)C2)C3)cc1 is listed as inconclusive: 0.731 µM [rising, full curve] | –
CC(C)(C)C(=O)Nc1nc2c(s1)CN(Cc1ccccc1)CC2 is listed as inconclusive: 20.6 µM [cytotoxic, single point] | –
COC(=O)Nc1ccc(S(=O)(=O)N2CCC(C(=O)N3CCCC(C)C3)CC2)cc1 (centres undefined) is listed as inconclusive: 29.1 µM [cytotoxic, single point] | –
